Results on one sequence are retold here after PMC3570535.

Chains of the proteins cited; added tags and fusions are not shown. Residues count along the entry.
UniProt P10515, 87-647: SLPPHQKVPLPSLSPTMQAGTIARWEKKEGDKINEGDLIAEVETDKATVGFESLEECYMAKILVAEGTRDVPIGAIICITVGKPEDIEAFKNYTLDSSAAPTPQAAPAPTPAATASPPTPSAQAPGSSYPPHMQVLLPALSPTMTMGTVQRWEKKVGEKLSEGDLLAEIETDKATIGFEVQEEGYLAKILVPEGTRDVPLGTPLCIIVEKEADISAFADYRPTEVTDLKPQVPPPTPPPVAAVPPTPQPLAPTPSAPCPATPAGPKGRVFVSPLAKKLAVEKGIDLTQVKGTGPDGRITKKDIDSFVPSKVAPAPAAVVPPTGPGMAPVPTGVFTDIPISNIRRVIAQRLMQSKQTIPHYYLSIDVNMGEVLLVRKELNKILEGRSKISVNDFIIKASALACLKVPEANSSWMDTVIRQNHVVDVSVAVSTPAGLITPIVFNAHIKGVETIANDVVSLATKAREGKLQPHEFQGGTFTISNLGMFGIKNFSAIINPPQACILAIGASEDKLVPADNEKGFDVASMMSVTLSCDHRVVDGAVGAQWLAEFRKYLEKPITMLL

The exact form of at least one protein or probe is not confirmed. For part of these data: Weaker means in comparison with the reference protein, sequence or condition of that experiment. For part of these data: Where a protein sequence is shown, tags need not be part of it.

Holding throughout (assay): UV cross-linking
For series [1], the target named is Hs-E2 (DLAT) (Homo sapiens) (UniProt P10515). As to conditions: ~100 ng protein, weakest, compared with green-lineage proteins; 20 mM HEPES/KOH pH 7.8, 5 mM MgCl2, 60 mM KCl, RT; 5 min (UV cross-linking, 254 nm, 1 J/cm2) or 15 min (filter binding); recombinant protein; protein details: His6; label: 32P-UTP (internal); probe letters rebuilt from the primers and the genome.

The target of series [2] is T1, Sc-E2 (Lat1) (Saccharomyces cerevisiae) (UniProt P12695).
T1 sequence (looked up, limits assumed): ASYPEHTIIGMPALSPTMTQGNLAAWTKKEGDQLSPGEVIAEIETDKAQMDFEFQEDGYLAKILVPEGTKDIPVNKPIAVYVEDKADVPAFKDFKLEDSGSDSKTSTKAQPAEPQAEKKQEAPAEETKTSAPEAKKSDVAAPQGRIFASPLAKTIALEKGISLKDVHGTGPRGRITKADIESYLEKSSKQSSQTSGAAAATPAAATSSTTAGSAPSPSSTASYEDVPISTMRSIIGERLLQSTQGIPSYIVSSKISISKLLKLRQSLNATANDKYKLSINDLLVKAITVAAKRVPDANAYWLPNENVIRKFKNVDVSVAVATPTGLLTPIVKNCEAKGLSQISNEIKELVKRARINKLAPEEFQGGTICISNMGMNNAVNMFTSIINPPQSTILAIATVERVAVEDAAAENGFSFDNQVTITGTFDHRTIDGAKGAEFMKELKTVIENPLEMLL
Conditions: ~100 ng protein, weaker than green-lineage proteins; 20 mM HEPES/KOH pH 7.8, 5 mM MgCl2, 60 mM KCl, RT; 5 min (UV cross-linking, 254 nm, 1 J/cm2) or 15 min (filter binding); recombinant protein; protein details: His6; label: 32P-UTP (internal); probe letters rebuilt from the primers and the genome.

Series [3] has as its target T2, Syn-E2 (Synechocystis sp. PCC 6803) (UniProt P74510).
T2 sequence (looked up, limits assumed): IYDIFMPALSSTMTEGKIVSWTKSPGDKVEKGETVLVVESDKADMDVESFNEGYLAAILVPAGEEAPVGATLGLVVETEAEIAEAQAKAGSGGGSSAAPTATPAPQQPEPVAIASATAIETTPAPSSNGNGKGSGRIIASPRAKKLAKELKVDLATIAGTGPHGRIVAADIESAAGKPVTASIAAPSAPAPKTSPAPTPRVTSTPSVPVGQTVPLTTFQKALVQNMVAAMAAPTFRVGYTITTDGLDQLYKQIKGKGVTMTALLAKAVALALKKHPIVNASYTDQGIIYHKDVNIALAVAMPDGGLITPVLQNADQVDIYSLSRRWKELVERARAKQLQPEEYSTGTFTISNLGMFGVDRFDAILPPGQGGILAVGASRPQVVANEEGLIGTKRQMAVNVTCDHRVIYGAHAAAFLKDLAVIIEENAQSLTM
As to conditions: ~100 ng protein; 20 mM HEPES/KOH pH 7.8, 5 mM MgCl2, 60 mM KCl, RT; 5 min (UV cross-linking, 254 nm, 1 J/cm2) or 15 min (filter binding); recombinant protein; protein details: His6; label: 32P-UTP (internal); probe letters rebuilt from the primers and the genome.

For the sequence “GGGUACCAUGCUUUUAAUAGAAGCUUGAAUUUAUAAAUUAAAAUAUUUUUACAAUAUUUUACGGAGAAAUUAAAACUUUAAAAAAAUUAACAUAUGA [psbA 5' UTR RNA]”, the values for the binding result in series [1], in series [2] and in series [3] were “binds more weakly”, “binds more weakly” and “binds”, respectively.
